# PubChem BioAssay AID1259405 – NCATS | 2018
# Aim: 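Mouse-designed siRNAs used to find CHO productivity engineering targets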 (primary screen)
# System: Chinese hamster CHO-K1 ovary cells with stable secreted eGFP expression
# Reagents: single siRNA against mouse genes, 0.8 pmol siRNA per well (2 µl of 400 nM stock)
# Duration: 3 days
# Measured: 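Per-well intracellular GFP measured by laser scanning cytometry, plus viability from ATP luminescence, each relative to plate median of non-targeting control wells, in %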
# Scale: GFP, % of control: higher = more GFP per well, higher productivity; viability (ATP), % of control: higher = more viable cells (more ATP)
# Hit rule: 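a knock-down is called active if GFP reaches 120% or more of non-targeting control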
# In all, the deposit lists about 50,000 reagents; shown is a random part of them. In the full data, about 4,000 (8%) got an active call. 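Mouse siRNA library applied to hamster cells; one well for each siRNA.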 Entries without a mark were called inactive. Reagents against one gene are numbered here.
The first 2 records as a preview:
gene symbol,reagent,"GFP, % of control","viability (ATP), % of control"
Plet1,1,67.8,85
Plet1,2,86,70.6

The listing, from the first entry:
gene symbol,reagent,"GFP, % of control","viability (ATP), % of control"
Plet1,1,67.8,85
Plet1,2,86,70.6
Plet1,3,58.3,46
Sptbn1,1,80.1,52.5
Sptbn1,2,59.9,67.8
Sptbn1,3,60.2,47.8
Ccdc18,1,39.5,31.6
Ccdc18,2,62.8,31.8
Ccdc18,3,43.6,72.5
Agpat1,1,103,64.1
Agpat1,2,145 (active),136
Agpat1,3,115,99
Helq,1,36.4,28.2
Helq,2,57.3,79.4
Helq,3,39.3,43.2
Sfi1,1,107,104
Sfi1,2,17.3,17.7
Sfi1,3,62.6,72.2
F12,1,75.9,98.7
F12,2,145 (active),88.6
F12,3,137 (active),72.8
Fmo9,1,38.4,23
Fmo9,2,61.7,48.3
Fmo9,3,102,91.9
Or5b107,1,64.8,54
Or5b107,2,45.7,50.1
Or5b107,3,80.1,77.7
Snx4,1,66.4,95.2
Snx4,2,84.1,83.4
Herc1,1,114,88.2
Herc1,2,99.5,68.2
Herc1,3,45.6,91.7
Slc16a3,1,44.9,39.7
Slc16a3,2,73.5,55.2
Slc16a3,3,54.4,62.6
